Data from patent US20250339503A1, “PEPTIDES AND COMBINATIONS OF PEPTIDES FOR USE IN IMMUNOTHERAPY AGAINST ACUTE MYELOID LEUKEMIA (AML) AND OTHER HEMATOLOGICAL NEOPLASMS” (Eberhard Karls Universität Tübingen Medizinische Fakultät, priority 2022, published 2025).

Tested on: HLA class I and HLA class II immunopeptidomes of primary AML samples
Test: Mass spectrometry-based immunopeptidome analysis, comparative profiling
Parameters: species or system human
Settings: cryptic HLA class I peptides, AML immunopeptidomes of matching allotype

Sequence	allotype-specific presentation frequency [%]
ILLSPPLLTI [P1_cryA*02, cryptic HLA-A*02 peptide from the UTR5 region of CHRFAM7A]	26
GPDDGRGVL [P2_cryB*02, cryptic HLA-B*07 peptide, off-frame from TSPAN2]	42
